Literature values in article PMC4210246 (PLoS ONE, 2014).
pEC50: −log10 of the molar value.

Assays:
[1] = target: β2-α1/γ2L-β2-α1 receptors; conditions: read-out: GABA EC50; data reproduced; cited from earlier work
[2] = target: β2-α1M236W/γ2L-β2-α1M236W receptors; conditions: read-out: GABA EC50; data reproduced; cited from earlier work

In the case of `NCCCC(=O)O` [GABA, γ-Aminobutyric Acid], the pEC50 [1] is listed as 4.44 and the pEC50 [2] is listed as 6.00.
